In PubChem BioAssay AID540256 (National Center for Advancing Translational Sciences (NCATS), 2011):
In all, about 300,000 compounds went through this assay and about 3,700 (1.2%) were called active. The inconclusive results got no clear call from the source; some entries with a clear call stand among them for comparison. The call rests on the fitted dose curve; tested in HEK293 cells. Potencies of inconclusive entries are doubtful fits and often do not repeat.

Test: qHTS for Inhibitors of binding or entry into cells for Lassa Virus; further: nearly all actives have a fitted effect of over 50% in size
Conditions: Lassa virus pseudotype entry inhibition, cell reporter; activity change, negative = inhibition: at 37.9 µM (top of the series) unless noted
On the % scale 0 is the no-effect control and ±100 the full control effect; potency means the concentration at half of the fitted maximal effect.

Structure (SMILES) | Potency | activity change, negative = inhibition
O=c1c2ccccc2nnn1CSc1nnc(-c2cccc(S(=O)(=O)N3CCCCC3)c2)o1 | inconclusive: 18.3 µM [inhibitor, single point] | –
CCN1C(C(=O)c2ccccc2)=C(OC(=O)COc2ccc(C)cc2)c2ccccc2S1(=O)=O | – | inactive: 0.318% [at 46.1 µM]
COc1cc(CNC(C)C23CC4CC(CC(C4)C2)C3)ccc1OCC(=O)NC(C)(C)C (stereo unspecified) | inconclusive: 35.5 µM [inhibitor, single point] | –
O=c1cc(-c2cc3ccccc3o2)c2cc(O)ccc2o1 | – | inactive: -21% [at 46.1 µM]
COc1ccc2nc(/N=C\N(C)C)sc2c1 | – | inactive: 2.52%
CCOC(=O)C1=NN(c2ccccc2)C2(S1)SC(C(C)=O)=C(C)N2c1ccccc1 (stereo unspecified) | inconclusive: 29.1 µM [inhibitor, single point] | –
Fc1nc(F)c(F)c(NCCCNc2c(F)c(F)nc(F)c2F)c1F | inconclusive: 25.9 µM [inhibitor, single point] | –
O=C(Nc1nc2c(F)cc(F)cc2s1)c1ccc(S(=O)(=O)N2CCc3ccccc32)cc1 | inconclusive: 20 µM [inhibitor, single point] | –
COc1ccc(S(=O)(=O)Nc2cc(C(=O)NCCC(C)C)ccc2N2CCOCC2)cc1 | inconclusive: 20.6 µM [inhibitor, single point] | –
Cc1nc2ccc(C(=O)c3ccccc3)cc2[nH]1 | – | inactive: 5.71%
Cc1cc(=O)[nH]c(NN=Cc2cc(Br)ccc2O)n1 | active: 10 µM | –
O=C(OCCNc1ccc(C(F)(F)F)cc1[N+](=O)[O-])c1cc2ccccc2oc1=O | – | inactive: 3.96% [at 46.1 µM]
O=C(NCC(c1ccco1)N1CCCCC1)C(c1ccccc1)c1ccccc1 (stereo unspecified) | inconclusive: 8.91 µM [inhibitor, partial curve, poor fit] | –
COc1ccccc1C(=O)N1CCN(S(=O)(=O)c2ccccc2)CC1 | – | inactive: -3.73%
CN1CCCCc2c1[nH]c1ccccc1c2=O | inconclusive: 0.1 µM [activator, full curve, poor fit] | –
COc1ccc2oc(C(=O)OCC(=O)NCc3ccc(OC)c(OC)c3)c(C)c2c1 | inconclusive: 35.5 µM [inhibitor, single point] | –
CC(=O)N1CCCC1c1nc2ccccc2n1Cc1ccccc1Cl (stereo unspecified) | – | inactive: 1.47% [at 46.1 µM]
O=C(Cc1ccccc1)NNC(=S)Nc1ccc(Cl)cc1 | – | inactive: -26.2%
Cn1cnc(S(=O)(=O)Nc2cc(C(F)(F)F)ccc2N2CCOCC2)c1 | – | inactive: 12.3% [at 46.1 µM]
CCCn1c(N)c(C(=O)CSc2nc3ccccc3n2CCC#N)c(=O)n(C)c1=O | – | inactive: 9.36%
Cc1ccc(S(=O)(=O)Nc2nc3ccc(S(C)(=O)=O)cc3s2)cc1 | – | inactive: 2.6%
CCOc1ccc(-c2nnc3ccc(SCC(=O)Nc4nc5ccc(C)cc5s4)nn23)cc1 | inconclusive: 1.26 µM [activator, partial curve, poor fit] | –
O=C(/C=C/c1ccc(Cl)cc1Cl)NCCSCc1ccccc1 | inconclusive: 18.4 µM [inhibitor, partial curve] | –
O=C(Nc1ncccc1O)c1ccc(Oc2ccccc2)cc1 | inconclusive: 10 µM [inhibitor, partial curve, poor fit] | –

Structure (SMILES) | Potency | activity change, negative = inhibition
O=c1[nH]nc(-c2ccc([N+](=O)[O-])o2)c(=O)[nH]1 | – | inactive: 17.8% [at 46.1 µM]
NS(=O)(=O)c1cccc(NC(=O)/C=C/c2cccs2)c1 | inconclusive: 3.55 µM [activator, single point] | –
O=C(CN1CCN(S(=O)(=O)c2ccc(Cl)cc2)CC1)Nc1ccc2c(c1)CCC2 | inconclusive: 0.411 µM [inhibitor, partial curve] | –
CCOC(=O)/C=c1\s/c(=C\c2ccc(C#N)cc2)c(=O)n1CC(=O)Nc1cccc(C)c1C | inconclusive: 3.16 µM [inhibitor, partial curve, poor fit] | –
COc1cc(C(=O)Nc2cc(C(F)(F)F)ccc2N2CCOCC2)ccc1O | inconclusive: 11.2 µM [activator, partial curve, poor fit] | –
CCOc1ccc(CCn2c3c(c(=O)[nH]c2=O)C(NC(=O)c2cccc(F)c2)(C(F)(F)F)C(=O)N3)cc1OCC (stereo unspecified) | – | inactive: 25.3% [at 46.1 µM]
COc1ccccc1N(CC(=O)NC1CCCC1)C(=O)c1oc(C(C)(C)C)cc1C | inconclusive: 17.8 µM [inhibitor, single point] | –
CCCCCn1c(N2CCCC2)nc2c1c(=O)n(C)c(=O)n2C | inconclusive: 35.5 µM [inhibitor, single point] | –
CCc1ccccc1NC(=O)C1CCN(S(=O)(=O)c2cn(C)cn2)CC1 | – | inactive: -2.5% [at 46.1 µM]
C/C(=N\NC(=S)NCCc1ccccc1)c1ccc(O)cc1O | inconclusive: 35.5 µM [inhibitor, single point] | –
COc1ccccc1N1CCN(C2CCCN(C(=O)CCc3ccccn3)C2)CC1 (stereo unspecified) | inconclusive: 2.82 µM [activator, full curve, poor fit] | –
COc1ccc(OC)c(N2C(=O)c3cccnc3C2=O)c1 | – | inactive: -1.41% [at 46.1 µM]
CC1CN(CC(=O)Nc2ccc(S(N)(=O)=O)cc2)CC(C)O1 (stereo unspecified) | inconclusive: 3.16 µM [inhibitor, single point] | –
Cc1ccccc1-n1c(SCc2c(C)noc2C)nnc1-c1c[nH]c2ccccc12 | inconclusive: 3.55 µM [inhibitor, partial curve] | –
COc1cccc(NC(=O)CCN2C(=O)c3ccccc3Sc3ncccc32)c1 | – | inactive: -1.81% [at 46.1 µM]
O=S(=O)(c1ccc(Cl)cc1)c1nc(-c2cccs2)oc1N1CCCCC1 | – | inactive: -0.22% [at 46.1 µM]
CCNC(=O)NC(=O)C(C)Sc1nnc(COc2ccccc2Cl)o1 (stereo unspecified) | inconclusive: 14.1 µM [activator, single point] | –
O=C(O)c1ccc(N/N=C/c2ccc3c(c2)OCO3)cc1 | inconclusive: 1.12 µM [inhibitor, full curve, poor fit] | –
O=C(c1ccccc1)c1ccccc1N/C=C/c1nnnn1-c1ccccc1 | active: 13 µM | –
c1ccc(N2CCN(c3ncnc4scc(-c5cccs5)c34)CC2)cc1 | – | inactive: -27.1%
C=CCn1c(SCC(=O)N(CCOC)c2c(N)n(CC(C)C)c(=O)[nH]c2=O)nc2ccccc21 | inconclusive: 0.794 µM [activator, full curve] | –
Cc1cc(C)c(N=C2SCC(=O)N2Cc2ccco2)c(C)c1 | inconclusive: 22.4 µM [inhibitor, single point] | –
O=C(Nc1ccc(N2CCCC2)c(Cl)c1)c1ccc(Br)o1 | inconclusive: 2.59 µM [activator, partial curve, poor fit] | –
COc1cccc(CSc2nc3ccncc3n2CC(=O)Nc2ccc(OC)c(OC)c2OC)c1 | inconclusive: 0.562 µM [activator, full curve, poor fit] | –

Structure (SMILES) | Potency | activity change, negative = inhibition
COc1ccccc1C(=O)NCCC(=O)N1CCCCCCC1 | – | inactive: -23.7%
CCOC(=O)c1c(NC(=O)CN2C(=O)NC3(CCCCC3)C2=O)sc(C)c1-c1ccc(C)cc1 | inconclusive: 0.0891 µM [inhibitor, full curve, poor fit] | –
CC(=O)c1ccc(C#CC(C)(C)O)s1 | inconclusive: 0.501 µM [activator, full curve, poor fit] | –
COc1ccc(C(=O)NCCC(C)C)cc1S(=O)(=O)N1CCOCC1 | inconclusive: 4.61 µM [inhibitor, single point] | –
O=C(NCc1ccc(F)cc1)C1CCN(S(=O)(=O)N2CCCC2)CC1 | – | inactive: -10.1%
CCC1CN(C(=O)N2CCC(C(=O)NCCc3ccc(OC)cc3OC)CC2)c2cc(C)ccc2O1 (stereo unspecified) | – | inactive: -18.2% [at 46.1 µM]
CC(C)CNC(=O)c1ccccc1Oc1ccccc1 | – | inactive: 2.04%
Nc1[nH]c(N=NC(=O)c2ccccc2)c2ccccc12 | inconclusive: 1.3 µM [inhibitor, partial curve] | –
Cc1cccc(NC(=O)c2sc3ncnc(N(C)C4CCCCC4)c3c2C)c1C | – | inactive: 23.4% [at 46.1 µM]
COc1cc(S(=O)(=O)N2CCN3CCCC3C2)ccc1-n1cnnn1 (stereo unspecified) | inconclusive: 1.83 µM [inhibitor, partial curve, poor fit] | –
CC(C)(C)c1csc(NC(=O)c2ccccc2O)n1 | inconclusive: 22.4 µM [inhibitor, partial curve, poor fit] | –
O=C(c1cc(COc2c(F)cccc2F)on1)N1CCC(c2ccccc2F)C1 (stereo unspecified) | – | inactive: 0.184%
COc1ccc(OC)c(NC(=O)CCc2c[nH]c3ccccc23)c1 | inconclusive: 6.31 µM [inhibitor, partial curve, poor fit] | –
Cn1c(=O)c2c(ncn2CC(COCc2ccccc2Cl)OCc2ccccc2Cl)n(C)c1=O (stereo unspecified) | inconclusive: 32.6 µM [inhibitor, single point] | –
COc1cc(S(=O)(=O)N(Cc2ccc(C)cc2)Cc2ccco2)ccc1-n1cnnn1 | inconclusive: 0.259 µM [inhibitor, full curve, poor fit] | –
O=C(Cc1c[nH]c2ccccc12)NCc1ccc2c(c1)OCO2 | – | inactive: 20.6%
CCN(CC(O)Cn1c2ccccc2c2ccccc21)S(=O)(=O)c1ccc(C)cc1 (stereo unspecified) | inconclusive: 23.1 µM [inhibitor, single point] | –
COc1ccc(CCNC(=O)c2ccc(Br)cc2)cc1 | – | inactive: 3.78% [at 46.1 µM]
COc1ccc(CNC(=O)C2(c3ccc(Cl)cc3)CC2)cc1 | inconclusive: 35.5 µM [inhibitor, single point] | –
O=C(CSc1nccn1Cc1ccc(F)cc1)NCc1ccco1 | inconclusive: 6.31 µM [activator, partial curve, poor fit] | –
CCOC(=O)CCN1C(=O)[C@@H]2[C@H]3[C@H](O)[C@H](O)CC(=NNC(=O)OCc4ccccc4)[C@H]3CC[C@H]2C1=O | inconclusive: 0.15 µM [inhibitor, full curve, poor fit] | –
Cc1cc(C)c2c(c1)c(C)cc1nnc(SCC(=O)c3ccccc3)n12 | – | inactive: 0.05% [at 46.1 µM]
CCCN1C(=O)c2ccc(C(=O)Nc3cc(C)ccc3O)cc2C1=O | inconclusive: 35.5 µM [inhibitor, single point] | –

Copied from above for reference:
Structure (SMILES) | Potency | activity change, negative = inhibition
COc1cc(S(=O)(=O)N2CCN3CCCC3C2)ccc1-n1cnnn1 (stereo unspecified) | inconclusive: 1.83 µM [inhibitor, partial curve, poor fit] | –
CC(C)(C)c1csc(NC(=O)c2ccccc2O)n1 | inconclusive: 22.4 µM [inhibitor, partial curve, poor fit] | –
O=C(c1cc(COc2c(F)cccc2F)on1)N1CCC(c2ccccc2F)C1 (stereo unspecified) | – | inactive: 0.184%
COc1ccc(OC)c(NC(=O)CCc2c[nH]c3ccccc23)c1 | inconclusive: 6.31 µM [inhibitor, partial curve, poor fit] | –
Cn1c(=O)c2c(ncn2CC(COCc2ccccc2Cl)OCc2ccccc2Cl)n(C)c1=O (stereo unspecified) | inconclusive: 32.6 µM [inhibitor, single point] | –
COc1cc(S(=O)(=O)N(Cc2ccc(C)cc2)Cc2ccco2)ccc1-n1cnnn1 | inconclusive: 0.259 µM [inhibitor, full curve, poor fit] | –
